Results deposited as PubChem BioAssay AID1224826 (NIAID, 2016)

Assay: 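Regulators of Tlr4 signalling leading to Tnf-alpha expression in macrophages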 (primary screen)
Cells: RAW264.7 G9 macrophages from mouse bearing reporters for p65 (GFP) and the Tnf promoter (mCherry)
Knock-down reagent: siRNA pool against mouse genes, 100 nM
Duration: 16 h of LPS stimulation, after 2 days of siRNA transfection
Conditions: bacterial lipopolysaccharide (Salmonella minnesota R595), 10 ng/ml
Read-out: 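Nuclear mCherry signal of the Tnf promoter reporter measured by imaging after background removal, scaled to each plate median and turned into robust z-scores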
Reading the numbers: Tnf reporter robust z-score: higher = stronger Tnf promoter reporter signal after LPS; Tnf reporter intensity: higher = stronger Tnf promoter reporter signal
Active means: 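a well counts as active at a score of -1.3 or below (Tlr4 knock-down control median) or above 3 (raised signal); controls and wells holding fewer than 50 cells are excluded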
Calls: active = Tnf reporter clearly lowered or raised; inactive = no clear change in Tnf reporter
In all, the deposit lists about 17,000 reagents; shown is a random part of them. Of all reagents, about 1,110 (6.6%) were called active. 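Active means lowered or raised reporter signal; replicate intensities are raw and not normalised per plate.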

Gene,Tnf reporter robust z-score,fewer than 50 cells in well,"Tnf reporter intensity, replicate 1","Tnf reporter intensity, replicate 2",call
Rwdd2b,0.45,enough cells in well,153,169,inactive
Eif4h,0.67,enough cells in well,339,264,inactive
Spata31f3,1.41,enough cells in well,141,244,inactive
Zkscan2,-0.9,enough cells in well,144,112,inactive
Atp5f1a,-0.41,enough cells in well,158,132,inactive
Serpine2,-0.39,enough cells in well,262,171,inactive
Ccdc12,-0.83,enough cells in well,182,38,inactive
Aak1,,fewer than 50 cells per well; well left out of calls,46.9,87.7,inactive
Krtap16-3,-0.68,enough cells in well,156,54.9,inactive
Ercc1,0.59,enough cells in well,275,276,inactive
Or52e4,0.95,enough cells in well,113,177,inactive
Schip1,1.74,enough cells in well,197,209,inactive
Or7a41,,fewer than 50 cells per well; well left out of calls,35.4,44.8,inactive
Lcn5,2.38,enough cells in well,350,234,inactive
Ppfia1,0.54,enough cells in well,270,245,inactive
4930515G01Rik,-0.93,enough cells in well,111,44.8,inactive
Rdh5,0.79,enough cells in well,430,234,inactive
Socs4,0.01,enough cells in well,278,218,inactive
Fbxo3,0.13,enough cells in well,214,269,inactive
AY358078,-0.89,enough cells in well,136,99.3,inactive
Cyp2g1,-0.73,enough cells in well,154,117,inactive
Scnn1b,0.01,enough cells in well,277,218,inactive
Exosc10,-0.08,enough cells in well,227,122,inactive
Gimap7,-1.34,enough cells in well,129,56.1,active
Kif2a,-0.27,enough cells in well,248,115,inactive
Iqub,,fewer than 50 cells per well; well left out of calls,158,85.4,inactive
Heyl,-0.27,enough cells in well,214,173,inactive
Mcoln1,-0.46,enough cells in well,257,144,inactive
Zfp819,,fewer than 50 cells per well; well left out of calls,201,46.4,inactive
Chchd2,-0.62,enough cells in well,108,169,inactive
Vegfd,0.27,enough cells in well,274,263,inactive
Il18bp,-0.71,enough cells in well,161,129,inactive
D830039M14Rik,3.95,enough cells in well,429,384,active
Or1e26,0.81,enough cells in well,218,162,inactive
S100a10,0.2,enough cells in well,332,217,inactive
Tas2r102,-0.08,enough cells in well,115,65.9,inactive
Cdh4,-0.26,enough cells in well,168,136,inactive
Zp3r,-1.51,enough cells in well,70.1,50.8,active
Dusp9,-0.31,enough cells in well,177,214,inactive
Dennd4b,-0.47,enough cells in well,180,177,inactive

Reformatted: results already given
Ccdc12
- Tnf reporter robust z-score: -0.83
- fewer than 50 cells in well: enough cells in well
- Tnf reporter intensity, replicate 1: 182
- Tnf reporter intensity, replicate 2: 38
- call: inactive

Aak1
- fewer than 50 cells in well: fewer than 50 cells per well; well left out of calls
- Tnf reporter intensity, replicate 1: 46.9
- Tnf reporter intensity, replicate 2: 87.7
- call: inactive

Krtap16-3
- Tnf reporter robust z-score: -0.68
- fewer than 50 cells in well: enough cells in well
- Tnf reporter intensity, replicate 1: 156
- Tnf reporter intensity, replicate 2: 54.9
- call: inactive

Ercc1
- Tnf reporter robust z-score: 0.59
- fewer than 50 cells in well: enough cells in well
- Tnf reporter intensity, replicate 1: 275
- Tnf reporter intensity, replicate 2: 276
- call: inactive

Or52e4
- Tnf reporter robust z-score: 0.95
- fewer than 50 cells in well: enough cells in well
- Tnf reporter intensity, replicate 1: 113
- Tnf reporter intensity, replicate 2: 177
- call: inactive
